According to paper PMC7948448:
Results are given in words; binding and its absence hold for the method and conditions named. In cells and extracts the contact can be indirect. Some results given as binding are weak or reduced against the parent protein; the word gives no strength.

Sequences of proteins named here, by UniProt entry; tags and fusion partners are left off. A change or cut given only in a name is not applied to a line headed by its entry.
UniProt P53686: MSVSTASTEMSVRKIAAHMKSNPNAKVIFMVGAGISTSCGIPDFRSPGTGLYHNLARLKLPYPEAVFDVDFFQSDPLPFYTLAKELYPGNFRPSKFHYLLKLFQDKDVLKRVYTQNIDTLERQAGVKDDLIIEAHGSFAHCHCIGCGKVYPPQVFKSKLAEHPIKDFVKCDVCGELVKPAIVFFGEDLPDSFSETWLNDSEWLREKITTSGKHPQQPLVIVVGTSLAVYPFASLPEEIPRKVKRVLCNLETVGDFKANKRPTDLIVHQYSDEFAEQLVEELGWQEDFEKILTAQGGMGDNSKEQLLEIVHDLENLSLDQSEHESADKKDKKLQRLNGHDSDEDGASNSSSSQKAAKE
UniProt P29311: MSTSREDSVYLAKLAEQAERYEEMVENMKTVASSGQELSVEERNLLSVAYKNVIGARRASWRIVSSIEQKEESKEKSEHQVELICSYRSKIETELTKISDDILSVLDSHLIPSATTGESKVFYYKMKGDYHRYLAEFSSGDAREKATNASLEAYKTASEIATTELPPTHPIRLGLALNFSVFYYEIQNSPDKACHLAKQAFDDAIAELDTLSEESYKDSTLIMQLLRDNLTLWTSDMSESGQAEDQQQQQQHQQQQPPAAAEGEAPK
UniProt P29469: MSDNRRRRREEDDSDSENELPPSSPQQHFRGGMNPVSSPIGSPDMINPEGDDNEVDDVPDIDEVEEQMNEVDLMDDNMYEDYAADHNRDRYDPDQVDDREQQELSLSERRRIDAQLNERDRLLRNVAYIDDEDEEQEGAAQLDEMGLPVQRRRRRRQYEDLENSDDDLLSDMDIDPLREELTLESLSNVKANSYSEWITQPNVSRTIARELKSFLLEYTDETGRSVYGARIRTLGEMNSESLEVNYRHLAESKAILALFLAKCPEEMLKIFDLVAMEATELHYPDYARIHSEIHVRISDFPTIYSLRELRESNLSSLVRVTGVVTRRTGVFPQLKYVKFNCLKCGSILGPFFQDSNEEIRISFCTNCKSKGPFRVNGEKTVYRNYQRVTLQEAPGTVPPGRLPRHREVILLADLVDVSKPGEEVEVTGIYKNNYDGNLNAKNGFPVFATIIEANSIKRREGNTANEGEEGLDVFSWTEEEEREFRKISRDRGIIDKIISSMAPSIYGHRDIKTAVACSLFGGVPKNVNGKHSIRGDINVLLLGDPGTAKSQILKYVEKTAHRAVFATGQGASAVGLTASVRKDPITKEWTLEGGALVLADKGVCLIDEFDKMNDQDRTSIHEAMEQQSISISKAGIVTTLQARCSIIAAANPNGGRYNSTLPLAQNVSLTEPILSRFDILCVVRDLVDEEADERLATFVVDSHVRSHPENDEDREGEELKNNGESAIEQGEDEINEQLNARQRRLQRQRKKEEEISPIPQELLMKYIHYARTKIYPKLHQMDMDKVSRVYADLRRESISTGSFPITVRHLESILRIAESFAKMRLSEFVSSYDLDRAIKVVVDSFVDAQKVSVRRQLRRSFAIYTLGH

Columns and labels:
[1] = target: Flag-Hst2 S320A (budding yeast) (UniProt P53686); assay: co-IP; Flag-Hst2 proteins precipitated from lysates of overexpressing yeast with anti-FLAG M2 agarose, 4 °C, 1 h, PBS with protease inhibitors and phosphatase inhibitor cocktail (PhosSTOP); washed with PBS with 0.2% Triton X-100; Western blot
[2] = target: Flag-Hst2 S324A (budding yeast) (UniProt P53686); assay: as above
[3] = target: Flag-Hst2, overexpressed in yeast (budding yeast) (UniProt P53686); assay: co-IP; Flag-Hst2 precipitated from yeast lysate with anti-FLAG M2 agarose beads; Western blot for minichromosome maintenance2 (Fig. S3)

In the case of “Bmh1, endogenous yeast 14-3-3 protein (from UniProt P29311 1-267)”, the binding [1] is reported as “no binding” and the binding [2] is reported as “no binding”.

In the case of “minichromosome maintenance2 (from UniProt P29469 1-868)”, the binding [3] is reported as “binds”.
